The supplement of paper PMC10849652
The other results are listed elsewhere or left out.

The chains behind the UniProt entries cited, without tags or fusion partners. Where a name states a change or a piece, a line headed by the entry shows the natural chain unless it says otherwise.
UniProt O60493, whole entry, looked up: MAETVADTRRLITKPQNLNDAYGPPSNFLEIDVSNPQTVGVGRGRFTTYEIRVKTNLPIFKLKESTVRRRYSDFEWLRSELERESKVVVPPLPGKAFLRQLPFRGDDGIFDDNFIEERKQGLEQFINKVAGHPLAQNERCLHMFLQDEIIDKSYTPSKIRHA
UniProt Q14683: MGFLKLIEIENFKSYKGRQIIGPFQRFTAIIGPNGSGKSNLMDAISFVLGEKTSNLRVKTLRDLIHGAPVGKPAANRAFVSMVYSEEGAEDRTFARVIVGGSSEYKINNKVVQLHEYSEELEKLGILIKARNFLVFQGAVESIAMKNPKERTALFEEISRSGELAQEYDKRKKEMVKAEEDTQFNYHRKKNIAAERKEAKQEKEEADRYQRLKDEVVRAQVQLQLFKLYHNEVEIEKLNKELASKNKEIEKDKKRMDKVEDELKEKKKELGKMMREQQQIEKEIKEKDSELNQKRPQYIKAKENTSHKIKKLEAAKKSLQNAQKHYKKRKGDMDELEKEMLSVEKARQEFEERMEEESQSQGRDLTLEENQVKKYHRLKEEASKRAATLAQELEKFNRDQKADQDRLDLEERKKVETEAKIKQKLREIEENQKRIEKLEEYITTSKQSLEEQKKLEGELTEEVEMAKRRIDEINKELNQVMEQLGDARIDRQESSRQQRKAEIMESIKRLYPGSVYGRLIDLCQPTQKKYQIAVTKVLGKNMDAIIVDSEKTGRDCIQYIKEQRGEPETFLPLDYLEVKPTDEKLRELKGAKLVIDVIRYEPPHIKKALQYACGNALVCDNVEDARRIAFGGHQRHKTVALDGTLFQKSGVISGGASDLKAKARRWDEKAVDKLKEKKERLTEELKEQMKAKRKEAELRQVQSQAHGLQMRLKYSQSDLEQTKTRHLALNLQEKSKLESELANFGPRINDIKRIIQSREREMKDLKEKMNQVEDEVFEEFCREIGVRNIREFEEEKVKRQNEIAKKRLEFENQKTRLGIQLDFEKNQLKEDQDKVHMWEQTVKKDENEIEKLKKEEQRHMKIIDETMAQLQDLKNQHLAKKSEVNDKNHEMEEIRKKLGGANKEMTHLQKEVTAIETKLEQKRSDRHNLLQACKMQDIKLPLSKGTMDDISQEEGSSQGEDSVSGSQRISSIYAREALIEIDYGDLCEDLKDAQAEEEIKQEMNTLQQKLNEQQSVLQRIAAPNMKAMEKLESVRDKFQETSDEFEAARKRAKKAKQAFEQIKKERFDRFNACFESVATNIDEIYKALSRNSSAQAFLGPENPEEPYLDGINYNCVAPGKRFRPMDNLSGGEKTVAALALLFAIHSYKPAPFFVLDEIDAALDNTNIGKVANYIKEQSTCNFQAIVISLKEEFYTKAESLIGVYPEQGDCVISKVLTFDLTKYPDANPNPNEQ
UniProt Q8N5G0: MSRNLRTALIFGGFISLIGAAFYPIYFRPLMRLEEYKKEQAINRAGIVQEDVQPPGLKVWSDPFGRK
UniProt O00161: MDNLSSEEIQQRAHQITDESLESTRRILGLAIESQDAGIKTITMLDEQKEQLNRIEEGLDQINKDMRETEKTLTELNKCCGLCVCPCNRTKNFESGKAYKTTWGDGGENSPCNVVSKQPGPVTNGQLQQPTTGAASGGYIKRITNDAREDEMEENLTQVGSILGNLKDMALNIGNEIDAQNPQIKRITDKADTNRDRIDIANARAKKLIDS
UniProt O60271: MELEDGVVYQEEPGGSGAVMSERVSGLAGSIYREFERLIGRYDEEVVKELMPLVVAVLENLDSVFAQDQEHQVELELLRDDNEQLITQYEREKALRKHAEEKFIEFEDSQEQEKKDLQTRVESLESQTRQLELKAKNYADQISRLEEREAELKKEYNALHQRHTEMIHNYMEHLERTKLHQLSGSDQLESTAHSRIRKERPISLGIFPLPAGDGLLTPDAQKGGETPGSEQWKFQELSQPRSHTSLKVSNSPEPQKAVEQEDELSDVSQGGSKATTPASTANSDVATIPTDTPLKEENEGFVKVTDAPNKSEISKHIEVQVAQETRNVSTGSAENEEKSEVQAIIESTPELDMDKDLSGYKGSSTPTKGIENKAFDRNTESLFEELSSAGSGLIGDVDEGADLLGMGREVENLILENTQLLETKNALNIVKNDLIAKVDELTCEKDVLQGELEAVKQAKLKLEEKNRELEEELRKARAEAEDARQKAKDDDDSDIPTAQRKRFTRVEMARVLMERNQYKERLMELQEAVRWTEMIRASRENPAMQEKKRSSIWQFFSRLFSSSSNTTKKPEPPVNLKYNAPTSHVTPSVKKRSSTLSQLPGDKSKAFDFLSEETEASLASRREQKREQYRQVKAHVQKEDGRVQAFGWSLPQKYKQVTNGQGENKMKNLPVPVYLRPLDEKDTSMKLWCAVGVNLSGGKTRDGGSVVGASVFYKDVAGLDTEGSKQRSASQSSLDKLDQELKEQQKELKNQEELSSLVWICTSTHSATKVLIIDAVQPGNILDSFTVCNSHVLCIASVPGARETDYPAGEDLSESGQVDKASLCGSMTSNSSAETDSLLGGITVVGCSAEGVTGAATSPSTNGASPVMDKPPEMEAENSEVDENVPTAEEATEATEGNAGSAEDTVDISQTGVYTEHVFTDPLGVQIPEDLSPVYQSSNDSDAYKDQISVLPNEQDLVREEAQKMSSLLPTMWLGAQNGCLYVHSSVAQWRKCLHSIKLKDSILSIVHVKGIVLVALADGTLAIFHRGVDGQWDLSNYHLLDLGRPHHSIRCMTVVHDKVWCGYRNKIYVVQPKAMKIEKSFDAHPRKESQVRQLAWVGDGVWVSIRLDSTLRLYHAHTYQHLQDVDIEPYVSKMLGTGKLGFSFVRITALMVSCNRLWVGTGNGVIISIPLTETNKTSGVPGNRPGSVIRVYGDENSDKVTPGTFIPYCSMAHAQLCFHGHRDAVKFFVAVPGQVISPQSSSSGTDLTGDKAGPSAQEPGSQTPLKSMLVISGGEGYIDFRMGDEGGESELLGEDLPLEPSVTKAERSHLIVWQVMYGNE
UniProt Q9NRH2: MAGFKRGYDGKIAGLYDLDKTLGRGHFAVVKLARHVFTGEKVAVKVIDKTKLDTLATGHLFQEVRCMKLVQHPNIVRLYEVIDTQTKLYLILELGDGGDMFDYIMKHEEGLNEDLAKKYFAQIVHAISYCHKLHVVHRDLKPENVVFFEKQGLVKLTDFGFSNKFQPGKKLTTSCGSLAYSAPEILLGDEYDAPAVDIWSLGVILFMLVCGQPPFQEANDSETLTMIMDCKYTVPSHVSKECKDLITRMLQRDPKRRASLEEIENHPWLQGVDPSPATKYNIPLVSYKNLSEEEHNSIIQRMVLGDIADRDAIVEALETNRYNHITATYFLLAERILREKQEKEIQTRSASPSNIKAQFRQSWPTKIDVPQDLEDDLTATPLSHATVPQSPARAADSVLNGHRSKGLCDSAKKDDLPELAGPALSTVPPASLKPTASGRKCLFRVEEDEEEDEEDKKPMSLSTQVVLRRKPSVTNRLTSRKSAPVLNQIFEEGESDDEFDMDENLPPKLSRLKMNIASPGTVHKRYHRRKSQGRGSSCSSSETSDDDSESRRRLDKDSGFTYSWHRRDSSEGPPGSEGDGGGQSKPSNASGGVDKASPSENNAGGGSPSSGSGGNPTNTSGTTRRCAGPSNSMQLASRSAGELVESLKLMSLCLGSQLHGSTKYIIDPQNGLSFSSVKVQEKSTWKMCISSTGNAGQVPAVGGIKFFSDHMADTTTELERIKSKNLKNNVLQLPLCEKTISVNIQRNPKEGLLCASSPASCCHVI
UniProt Q9BX66: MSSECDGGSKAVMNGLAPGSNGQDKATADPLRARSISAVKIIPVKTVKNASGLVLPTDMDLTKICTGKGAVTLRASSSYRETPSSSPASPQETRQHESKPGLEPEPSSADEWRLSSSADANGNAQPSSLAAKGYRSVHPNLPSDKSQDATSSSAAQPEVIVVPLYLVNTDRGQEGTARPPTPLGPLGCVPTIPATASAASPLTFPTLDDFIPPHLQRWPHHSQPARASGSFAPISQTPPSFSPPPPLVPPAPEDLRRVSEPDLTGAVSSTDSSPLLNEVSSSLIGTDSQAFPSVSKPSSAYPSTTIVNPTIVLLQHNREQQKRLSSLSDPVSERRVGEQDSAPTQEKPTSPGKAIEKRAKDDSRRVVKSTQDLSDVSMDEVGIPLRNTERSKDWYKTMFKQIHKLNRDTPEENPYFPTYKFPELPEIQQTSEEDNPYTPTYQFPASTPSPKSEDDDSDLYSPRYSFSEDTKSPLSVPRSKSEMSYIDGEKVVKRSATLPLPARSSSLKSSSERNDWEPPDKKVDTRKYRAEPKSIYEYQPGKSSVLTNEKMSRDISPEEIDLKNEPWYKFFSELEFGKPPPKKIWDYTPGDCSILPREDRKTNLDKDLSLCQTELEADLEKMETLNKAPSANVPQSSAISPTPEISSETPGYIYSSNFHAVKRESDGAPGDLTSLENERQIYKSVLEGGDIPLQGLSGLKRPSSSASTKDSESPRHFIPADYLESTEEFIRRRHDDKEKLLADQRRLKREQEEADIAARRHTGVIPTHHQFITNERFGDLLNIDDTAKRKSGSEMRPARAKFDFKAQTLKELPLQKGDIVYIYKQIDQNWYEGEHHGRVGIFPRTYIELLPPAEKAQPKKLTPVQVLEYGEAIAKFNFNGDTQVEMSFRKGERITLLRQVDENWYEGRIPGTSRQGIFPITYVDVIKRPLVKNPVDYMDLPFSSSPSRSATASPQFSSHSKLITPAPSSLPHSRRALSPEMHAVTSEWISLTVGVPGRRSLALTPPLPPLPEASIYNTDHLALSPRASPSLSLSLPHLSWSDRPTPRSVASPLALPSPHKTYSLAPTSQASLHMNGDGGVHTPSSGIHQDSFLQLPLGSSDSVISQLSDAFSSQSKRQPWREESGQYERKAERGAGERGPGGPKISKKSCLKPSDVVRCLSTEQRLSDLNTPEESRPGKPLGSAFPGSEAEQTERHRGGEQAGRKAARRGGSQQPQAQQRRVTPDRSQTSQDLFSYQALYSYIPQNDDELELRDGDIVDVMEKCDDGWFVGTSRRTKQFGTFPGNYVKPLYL
UniProt P04179: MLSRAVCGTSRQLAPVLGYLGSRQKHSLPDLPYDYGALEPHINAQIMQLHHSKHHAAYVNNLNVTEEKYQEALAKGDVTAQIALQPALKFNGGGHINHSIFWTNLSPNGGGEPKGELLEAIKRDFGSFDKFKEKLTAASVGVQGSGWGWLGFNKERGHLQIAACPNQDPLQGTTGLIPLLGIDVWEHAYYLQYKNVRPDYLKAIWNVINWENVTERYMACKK
UniProt Q6GMV2: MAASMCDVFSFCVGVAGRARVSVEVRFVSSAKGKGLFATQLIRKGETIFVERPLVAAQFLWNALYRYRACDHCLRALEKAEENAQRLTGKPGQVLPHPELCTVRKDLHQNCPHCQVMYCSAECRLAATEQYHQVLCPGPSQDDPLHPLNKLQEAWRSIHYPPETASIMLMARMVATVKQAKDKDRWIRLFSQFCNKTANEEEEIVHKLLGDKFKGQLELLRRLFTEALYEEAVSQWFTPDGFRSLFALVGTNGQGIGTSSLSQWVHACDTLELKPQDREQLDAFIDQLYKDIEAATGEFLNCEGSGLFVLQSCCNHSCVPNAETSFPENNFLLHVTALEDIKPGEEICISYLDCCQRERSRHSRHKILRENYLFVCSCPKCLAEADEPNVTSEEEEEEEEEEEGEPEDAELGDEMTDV
UniProt O95149, whole entry, looked up: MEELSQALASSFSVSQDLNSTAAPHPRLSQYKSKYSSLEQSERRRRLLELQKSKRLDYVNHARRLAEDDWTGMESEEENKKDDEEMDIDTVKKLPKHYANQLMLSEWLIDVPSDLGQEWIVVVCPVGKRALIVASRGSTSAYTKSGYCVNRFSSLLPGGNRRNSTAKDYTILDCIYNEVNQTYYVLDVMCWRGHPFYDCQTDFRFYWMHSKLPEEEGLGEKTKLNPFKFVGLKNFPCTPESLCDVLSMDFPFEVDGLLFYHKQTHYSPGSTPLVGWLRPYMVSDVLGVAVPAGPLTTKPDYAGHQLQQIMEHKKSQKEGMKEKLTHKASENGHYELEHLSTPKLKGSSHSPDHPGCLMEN
UniProt O60749: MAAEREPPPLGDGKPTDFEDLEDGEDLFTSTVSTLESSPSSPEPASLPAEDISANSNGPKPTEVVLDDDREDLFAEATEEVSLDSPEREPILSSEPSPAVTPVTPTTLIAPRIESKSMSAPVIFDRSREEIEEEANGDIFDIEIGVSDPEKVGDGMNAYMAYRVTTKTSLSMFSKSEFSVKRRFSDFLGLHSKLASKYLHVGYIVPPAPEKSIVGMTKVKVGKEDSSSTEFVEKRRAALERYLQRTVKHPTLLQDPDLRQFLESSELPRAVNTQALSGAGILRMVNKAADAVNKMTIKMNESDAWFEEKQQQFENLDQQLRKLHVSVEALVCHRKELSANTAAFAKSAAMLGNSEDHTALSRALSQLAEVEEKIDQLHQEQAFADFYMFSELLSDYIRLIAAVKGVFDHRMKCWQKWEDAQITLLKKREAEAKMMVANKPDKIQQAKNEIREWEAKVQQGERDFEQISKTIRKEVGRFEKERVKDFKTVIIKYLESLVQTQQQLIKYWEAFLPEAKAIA

Assays:
Assay in all cases: log2 fold change, soluble protein after heating vs DMSO (PISA); higher = thermal stabilisation; K562 lysate, 10 uM; active = over 0.2 and 3.5 SD of the protein, either way, in both replicates (recomputed)
[1] = compound: C1=CC=C(C=C1)[C@H](COC2=CC3=C(C=C2)NC(=O)N3)NC(=O)C4=CC=CN(C4=O)CC5=CC(=C(C=C5)F)F
In short: (§1)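 Values give the log-two fold change in thermal stability against solvent controls, from duplicates. Crude K562 extract at 1 mg/mL protein, made by dounce homogenisation in PBS pH 7.4 with 1 mM MgCl2, was treated with 10 μM compound for 30 min. After 3 min heating across 48°C-58°C, aliquots were pooled, adjusted to 0.5% NP-40 at 4°C and centrifuged at 21,000xg for 90 min. The supernatant was measured by TMTpro 16plex LC-MS/MS with channel sums equalised.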

[2] = compound: CC1=C(SC2=C1C(=N[C@H](C3=NN=C(N32)C)CC(=O)N)C4=CC=C(C=C4)Cl)C
In short: as §1

[3] = compound: CC1=C2C(=CC=C1)N=C(N(C2=O)C3=CC=CC=C3C)CN4C=NC5=C(N=CN=C54)N
In short: as §1

[4] = compound: Cc1sc2c(c1C)C(c1ccc(Cl)cc1)=N[C@@H](CC(=O)OC(C)(C)C)c1nnc(C)n1-2
In short: as §1

[5] = compound: c1ccc([C@@H]2C[C@H]2NC2CCNCC2)cc1
In short: as §1

Measured: log2 fold change

SMARCE1 (UniProt Q969G3)
inactive: [1] -0.021 | [2] -0.003 | [3] 0.02 | [4] -0.004 | [5] 0.021

SNRNP70 (UniProt P08621)
inactive: [1] 0.009 | [2] 0.045 | [3] -0.033 | [4] 0.02 | [5] -0.004

SNRPB isoform 3 (UniProt P14678)
inactive: [1] -0.02 | [2] -0.011 | [3] -0.011 | [4] 0.054 | [5] 0.046

SNX3 (UniProt O60493)
inactive: [1] -0.033 | [2] 0.031 | [3] -0.034 | [4] 0.036 | [5] 0.009

SMARCA5 (UniProt O60264)
inactive: [1] 0.006 | [2] 0.013 | [3] -0.005 | [4] -0.022 | [5] 0.012

SMARCC1 (UniProt Q92922)
inactive: [1] -0.018 | [2] -0.029 | [3] -0.009 | [4] -0.004 | [5] -0.026

SMARCAL1 (UniProt Q9NZC9)
inactive: [1] -0.082 | [2] -0.059 | [3] 0.018 | [4] 0.022 | [5] 0.096

SMC1A (UniProt Q14683)
inactive: [1] 0 | [2] 0.005 | [3] 0.011 | [4] 0.009 | [5] -0.001

SMIM20 isoform 2 (UniProt Q8N5G0)
inactive: [1] -0.205 | [2] -0.081 | [3] -0.114 | [4] -0.061 | [5] 0.075

SMARCB1 (UniProt Q12824)
inactive: [1] 0.045 | [2] 0.071 | [3] 0.019 | [4] 0.009 | [5] 0.054

SOS1 (UniProt Q07889)
inactive: [1] -0.041 | [2] -0.019 | [3] 0.047 | [4] -0.054 | [5] 0.134

SNAP23 (UniProt O00161)
inactive: [1] 0.059 | [2] -0.038 | [3] -0.005 | [4] 0.007 | [5] 0.066

SPAG9 (UniProt O60271)
inactive: [1] 0.029 | [2] -0.017 | [3] 0.011 | [4] -0.043 | [5] -0.042

SND1 (UniProt Q7KZF4)
inactive: [1] -0.008 | [2] 0.021 | [3] 0.022 | [4] 0.037 | [5] 0.041

SNRK (UniProt Q9NRH2)
inactive: [1] -0.015 | [2] -0.033 | [3] -0.394 | [4] -0.006 | [5] -0.093

SMN1 (UniProt Q16637)
inactive: [1] 0.083 | [2] -0.054 | [3] 0.054 | [4] -0.012 | [5] 0.024

SORBS1 isoform 8 (UniProt Q9BX66)
inactive: [1] 0.023 | [2] 0 | [3] 0.047 | [4] -0.012 | [5] 0.001

SNX27 (UniProt Q96L92)
inactive: [1] -0.043 | [2] 0.023 | [3] 0.008 | [4] 0.044 | [5] 0.004

SNRPC (UniProt Q5TAL2)
inactive: [1] 0.099 | [2] -0.014 | [3] 0.037 | [4] -0.038 | [5] -0.056

SNX15 (UniProt Q9NRS6)
inactive: [1] -0.024 | [2] 0.007 | [3] 0.005 | [4] 0.016 | [5] -0.011

SPAG5 (UniProt Q96R06)
inactive: [1] 0.006 | [2] 0.004 | [3] 0.021 | [4] 0.013 | [5] 0.026

SOD2 (UniProt P04179)
inactive: [1] 0.045 | [2] -0.021 | [3] -0.006 | [4] -0.003 | [5] -0.098

SMG7 (UniProt Q92540)
inactive: [1] 0.008 | [2] 0.019 | [3] 0.147 | [4] -0.014 | [5] 0.029

SMYD5 (UniProt Q6GMV2)
inactive: [1] 0.028 | [2] -0.001 | [3] 0.048 | [4] -0.029 | [5] -0.104

Two neighbouring records from above, quoted:
SPAG5 (UniProt Q96R06)
inactive: [1] 0.006 | [2] 0.004 | [3] 0.021 | [4] 0.013 | [5] 0.026

SOD2 (UniProt P04179)
inactive: [1] 0.045 | [2] -0.021 | [3] -0.006 | [4] -0.003 | [5] -0.098

(next part)

SMU1 isoform 2 (UniProt Q2TAY7)
inactive: [1] -0.216 | [2] 0.095 | [3] 0.216 | [5] -0.209

SNUPN (UniProt O95149)
inactive: [1] -0.013 | [2] -0.018 | [3] 0.047 | [5] -0.02

SNX2 (UniProt O60749)
inactive: [1] 0.01 | [2] 0.002 | [3] 0.021 | [4] -0.006 | [5] 0.018
